Reference: paper PMC7159923
Read-outs that look alike come from different tables or passages of the source. These are yes or no findings as the source states them, for the method shown. Binding seen in cells or lysates may run through a third protein. These calls come from enrichment with a bait or labelling near it, and not all partners need be listed.

The chains behind the UniProt entries cited, without tags or fusion partners. Where a name states a change or a piece, a line headed by the entry shows the natural chain unless it says otherwise. A line that says so, or that is headed by a name, gives the form on record, which may keep a tag or linker.
GFP-IQSec1 (Q6DN90, form named): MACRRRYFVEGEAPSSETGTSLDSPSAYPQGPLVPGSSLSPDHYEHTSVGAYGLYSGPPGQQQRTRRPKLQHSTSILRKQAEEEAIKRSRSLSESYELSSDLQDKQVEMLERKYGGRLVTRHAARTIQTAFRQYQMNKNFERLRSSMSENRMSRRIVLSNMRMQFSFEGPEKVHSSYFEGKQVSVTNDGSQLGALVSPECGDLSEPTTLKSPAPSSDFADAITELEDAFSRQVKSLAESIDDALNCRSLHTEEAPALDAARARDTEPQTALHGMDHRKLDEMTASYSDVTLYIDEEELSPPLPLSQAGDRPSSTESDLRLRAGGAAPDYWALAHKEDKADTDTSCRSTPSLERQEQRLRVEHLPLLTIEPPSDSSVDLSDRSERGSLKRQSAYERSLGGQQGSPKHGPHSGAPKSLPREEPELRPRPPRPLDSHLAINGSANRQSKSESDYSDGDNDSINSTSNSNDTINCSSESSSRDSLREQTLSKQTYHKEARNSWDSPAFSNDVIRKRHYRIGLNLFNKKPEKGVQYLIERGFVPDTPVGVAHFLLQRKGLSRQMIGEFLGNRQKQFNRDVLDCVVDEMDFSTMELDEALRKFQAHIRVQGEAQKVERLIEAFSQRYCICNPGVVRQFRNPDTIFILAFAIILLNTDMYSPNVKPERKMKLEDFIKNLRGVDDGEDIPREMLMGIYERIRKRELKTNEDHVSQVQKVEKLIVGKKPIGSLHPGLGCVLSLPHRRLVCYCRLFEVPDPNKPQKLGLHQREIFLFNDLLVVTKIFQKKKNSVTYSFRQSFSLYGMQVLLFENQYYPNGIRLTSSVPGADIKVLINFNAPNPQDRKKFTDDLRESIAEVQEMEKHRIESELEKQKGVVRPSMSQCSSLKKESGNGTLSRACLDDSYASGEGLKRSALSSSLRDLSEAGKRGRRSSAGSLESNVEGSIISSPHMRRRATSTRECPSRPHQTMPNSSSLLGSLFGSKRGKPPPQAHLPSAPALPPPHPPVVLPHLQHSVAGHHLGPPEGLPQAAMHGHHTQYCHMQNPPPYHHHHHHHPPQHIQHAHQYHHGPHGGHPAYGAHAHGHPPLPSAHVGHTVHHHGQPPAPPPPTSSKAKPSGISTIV
UniProt Q96CW1: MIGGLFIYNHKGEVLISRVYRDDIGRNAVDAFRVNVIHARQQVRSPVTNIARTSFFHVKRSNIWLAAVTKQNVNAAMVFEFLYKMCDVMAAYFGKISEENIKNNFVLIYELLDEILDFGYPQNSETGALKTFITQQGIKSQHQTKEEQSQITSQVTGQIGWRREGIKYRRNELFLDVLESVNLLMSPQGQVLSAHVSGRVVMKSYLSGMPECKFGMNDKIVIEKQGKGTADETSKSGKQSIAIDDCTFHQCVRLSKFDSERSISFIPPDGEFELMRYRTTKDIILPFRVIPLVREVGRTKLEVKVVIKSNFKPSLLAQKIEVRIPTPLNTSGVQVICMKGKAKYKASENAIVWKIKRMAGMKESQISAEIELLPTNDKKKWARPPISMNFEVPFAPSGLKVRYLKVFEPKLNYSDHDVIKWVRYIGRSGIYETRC
UniProt O00151: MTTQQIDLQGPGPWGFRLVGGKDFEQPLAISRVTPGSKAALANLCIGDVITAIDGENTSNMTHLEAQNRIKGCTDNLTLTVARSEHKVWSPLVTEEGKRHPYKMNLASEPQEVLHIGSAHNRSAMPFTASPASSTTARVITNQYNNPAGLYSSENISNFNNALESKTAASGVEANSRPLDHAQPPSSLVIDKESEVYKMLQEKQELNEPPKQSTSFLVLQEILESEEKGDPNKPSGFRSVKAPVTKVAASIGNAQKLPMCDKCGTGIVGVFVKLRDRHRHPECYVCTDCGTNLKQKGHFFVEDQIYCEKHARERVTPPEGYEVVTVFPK
UniProt Q9NR12: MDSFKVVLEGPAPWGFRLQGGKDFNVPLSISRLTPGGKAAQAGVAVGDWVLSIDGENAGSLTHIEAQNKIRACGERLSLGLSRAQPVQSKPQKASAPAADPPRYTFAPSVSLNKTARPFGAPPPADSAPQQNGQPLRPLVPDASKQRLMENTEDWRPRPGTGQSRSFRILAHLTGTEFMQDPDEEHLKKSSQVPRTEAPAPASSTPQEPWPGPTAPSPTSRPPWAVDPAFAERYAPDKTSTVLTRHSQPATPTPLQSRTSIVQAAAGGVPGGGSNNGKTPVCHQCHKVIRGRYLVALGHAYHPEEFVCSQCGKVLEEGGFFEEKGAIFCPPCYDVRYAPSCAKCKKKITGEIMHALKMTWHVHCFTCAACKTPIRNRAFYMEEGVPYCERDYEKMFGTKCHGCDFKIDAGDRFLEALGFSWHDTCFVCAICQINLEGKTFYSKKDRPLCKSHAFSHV
UniProt Q14160: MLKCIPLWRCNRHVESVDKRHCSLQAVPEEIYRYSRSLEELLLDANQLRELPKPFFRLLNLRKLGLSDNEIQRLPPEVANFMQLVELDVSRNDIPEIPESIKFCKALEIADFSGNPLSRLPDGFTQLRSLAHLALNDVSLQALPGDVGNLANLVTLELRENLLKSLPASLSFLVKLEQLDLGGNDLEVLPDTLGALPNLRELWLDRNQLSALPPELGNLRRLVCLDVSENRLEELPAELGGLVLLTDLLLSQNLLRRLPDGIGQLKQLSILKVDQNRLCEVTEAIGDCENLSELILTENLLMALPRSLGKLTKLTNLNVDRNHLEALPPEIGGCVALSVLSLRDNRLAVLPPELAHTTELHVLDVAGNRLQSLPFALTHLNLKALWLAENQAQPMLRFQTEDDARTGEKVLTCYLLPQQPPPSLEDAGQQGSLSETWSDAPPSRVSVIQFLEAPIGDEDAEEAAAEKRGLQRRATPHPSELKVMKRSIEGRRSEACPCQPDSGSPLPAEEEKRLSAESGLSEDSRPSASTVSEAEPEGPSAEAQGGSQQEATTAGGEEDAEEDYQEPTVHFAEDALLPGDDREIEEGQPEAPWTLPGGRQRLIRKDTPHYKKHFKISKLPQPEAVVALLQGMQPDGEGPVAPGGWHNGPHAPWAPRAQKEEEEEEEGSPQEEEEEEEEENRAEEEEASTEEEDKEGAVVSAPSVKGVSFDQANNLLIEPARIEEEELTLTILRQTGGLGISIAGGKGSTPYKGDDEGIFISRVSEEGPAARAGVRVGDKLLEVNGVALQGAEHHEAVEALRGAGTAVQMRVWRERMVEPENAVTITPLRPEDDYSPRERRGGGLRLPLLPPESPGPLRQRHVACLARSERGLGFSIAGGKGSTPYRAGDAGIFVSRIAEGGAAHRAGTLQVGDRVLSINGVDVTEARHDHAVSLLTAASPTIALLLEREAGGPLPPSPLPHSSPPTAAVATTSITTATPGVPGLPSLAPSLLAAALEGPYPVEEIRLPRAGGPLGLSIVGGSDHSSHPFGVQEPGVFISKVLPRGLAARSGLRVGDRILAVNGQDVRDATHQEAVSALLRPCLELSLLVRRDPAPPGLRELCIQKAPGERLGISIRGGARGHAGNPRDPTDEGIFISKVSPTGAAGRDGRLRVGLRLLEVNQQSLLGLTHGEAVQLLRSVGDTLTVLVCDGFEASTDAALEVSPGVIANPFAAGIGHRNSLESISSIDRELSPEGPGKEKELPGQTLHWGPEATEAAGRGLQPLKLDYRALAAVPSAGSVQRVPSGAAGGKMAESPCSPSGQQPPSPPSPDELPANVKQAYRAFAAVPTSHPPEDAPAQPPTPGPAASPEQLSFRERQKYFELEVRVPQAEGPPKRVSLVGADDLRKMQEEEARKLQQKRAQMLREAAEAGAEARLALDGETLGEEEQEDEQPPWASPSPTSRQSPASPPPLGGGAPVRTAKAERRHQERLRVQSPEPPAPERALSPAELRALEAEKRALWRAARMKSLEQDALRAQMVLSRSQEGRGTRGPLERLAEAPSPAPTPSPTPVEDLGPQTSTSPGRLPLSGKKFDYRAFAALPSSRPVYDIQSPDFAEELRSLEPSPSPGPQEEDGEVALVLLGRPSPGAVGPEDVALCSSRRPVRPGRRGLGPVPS
UniProt Q00610: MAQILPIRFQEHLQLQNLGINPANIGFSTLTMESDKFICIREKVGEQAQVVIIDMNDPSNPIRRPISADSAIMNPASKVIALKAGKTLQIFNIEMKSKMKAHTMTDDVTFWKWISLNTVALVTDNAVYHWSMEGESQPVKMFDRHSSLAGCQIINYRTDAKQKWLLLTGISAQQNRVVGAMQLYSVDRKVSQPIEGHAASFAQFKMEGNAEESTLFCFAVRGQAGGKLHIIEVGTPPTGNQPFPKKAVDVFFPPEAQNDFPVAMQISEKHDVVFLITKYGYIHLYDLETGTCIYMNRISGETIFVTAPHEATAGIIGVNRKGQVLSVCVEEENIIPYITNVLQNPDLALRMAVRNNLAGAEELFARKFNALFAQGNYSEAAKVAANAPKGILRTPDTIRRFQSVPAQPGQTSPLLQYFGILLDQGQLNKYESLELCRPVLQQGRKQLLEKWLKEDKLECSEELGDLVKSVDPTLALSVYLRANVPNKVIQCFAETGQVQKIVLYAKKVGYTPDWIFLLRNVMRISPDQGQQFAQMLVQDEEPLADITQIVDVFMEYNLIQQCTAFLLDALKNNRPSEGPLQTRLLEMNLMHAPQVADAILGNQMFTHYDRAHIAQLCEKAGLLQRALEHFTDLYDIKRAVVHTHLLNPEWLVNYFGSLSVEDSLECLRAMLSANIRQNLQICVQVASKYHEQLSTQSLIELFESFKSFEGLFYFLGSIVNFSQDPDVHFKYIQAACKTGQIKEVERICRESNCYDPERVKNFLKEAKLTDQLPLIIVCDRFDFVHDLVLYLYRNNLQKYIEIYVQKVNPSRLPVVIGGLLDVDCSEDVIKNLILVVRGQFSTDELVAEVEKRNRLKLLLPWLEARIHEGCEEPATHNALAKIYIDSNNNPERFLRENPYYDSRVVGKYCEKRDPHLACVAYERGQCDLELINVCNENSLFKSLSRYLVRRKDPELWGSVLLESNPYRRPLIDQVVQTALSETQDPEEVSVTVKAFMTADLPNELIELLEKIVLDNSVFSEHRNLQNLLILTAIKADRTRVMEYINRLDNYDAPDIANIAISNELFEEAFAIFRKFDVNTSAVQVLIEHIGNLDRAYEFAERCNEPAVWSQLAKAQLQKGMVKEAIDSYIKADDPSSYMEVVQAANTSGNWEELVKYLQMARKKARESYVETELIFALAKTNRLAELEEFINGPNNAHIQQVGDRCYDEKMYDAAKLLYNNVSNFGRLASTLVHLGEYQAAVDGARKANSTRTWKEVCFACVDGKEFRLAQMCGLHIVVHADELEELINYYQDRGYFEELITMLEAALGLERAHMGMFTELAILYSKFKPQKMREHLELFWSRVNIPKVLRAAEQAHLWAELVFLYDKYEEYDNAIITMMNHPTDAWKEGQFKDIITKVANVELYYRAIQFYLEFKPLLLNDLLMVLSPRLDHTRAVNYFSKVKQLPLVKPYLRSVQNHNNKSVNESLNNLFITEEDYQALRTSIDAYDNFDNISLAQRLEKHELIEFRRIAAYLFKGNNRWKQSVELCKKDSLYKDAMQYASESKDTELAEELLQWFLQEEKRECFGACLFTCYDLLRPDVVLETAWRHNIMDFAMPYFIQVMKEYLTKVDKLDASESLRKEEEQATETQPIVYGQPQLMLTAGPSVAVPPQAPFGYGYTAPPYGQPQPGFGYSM
UniProt Q9H4L5: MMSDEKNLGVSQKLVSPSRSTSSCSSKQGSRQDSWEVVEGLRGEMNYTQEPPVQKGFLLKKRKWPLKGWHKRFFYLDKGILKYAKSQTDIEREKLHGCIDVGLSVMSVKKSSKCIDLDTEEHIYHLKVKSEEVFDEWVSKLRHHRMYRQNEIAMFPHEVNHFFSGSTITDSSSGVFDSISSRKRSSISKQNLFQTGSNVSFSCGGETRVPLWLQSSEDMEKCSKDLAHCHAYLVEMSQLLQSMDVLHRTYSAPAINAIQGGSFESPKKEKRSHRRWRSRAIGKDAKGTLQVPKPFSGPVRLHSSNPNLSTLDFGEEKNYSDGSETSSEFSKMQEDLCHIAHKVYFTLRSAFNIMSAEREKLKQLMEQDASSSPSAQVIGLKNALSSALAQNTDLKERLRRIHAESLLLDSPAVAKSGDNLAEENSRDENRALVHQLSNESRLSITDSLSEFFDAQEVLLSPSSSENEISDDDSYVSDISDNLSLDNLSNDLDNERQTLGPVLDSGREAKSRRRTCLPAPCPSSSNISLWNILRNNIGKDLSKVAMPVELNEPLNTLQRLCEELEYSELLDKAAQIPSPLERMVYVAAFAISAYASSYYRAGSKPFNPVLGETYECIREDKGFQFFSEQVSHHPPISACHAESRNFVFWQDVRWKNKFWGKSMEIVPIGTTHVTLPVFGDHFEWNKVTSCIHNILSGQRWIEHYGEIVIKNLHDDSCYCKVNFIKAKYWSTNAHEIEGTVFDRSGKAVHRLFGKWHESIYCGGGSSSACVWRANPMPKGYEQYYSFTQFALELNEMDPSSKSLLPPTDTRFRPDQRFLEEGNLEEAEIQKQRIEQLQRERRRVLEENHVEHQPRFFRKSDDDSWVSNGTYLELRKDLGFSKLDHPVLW

Tests used:
GFP-IQSec1 (human) [1] = biological target: GFP-IQSec1 (human) (UniProt Q6DN90); assay: affinity purification with mass spectrometry; GFP-IQSec1 expressed in HEK-293; NP-40 lysis buffer (0.1% Nonidet P-40, Tris HCl pH7.4, 150 mM NaCl); GFP-TRAP_A beads 60 min; gel bands analysed by LC-MS/MS
GFP-IQSec1 (human) [2] = biological target: GFP-IQSec1 (human) (UniProt Q6DN90); assay: as above; remark: listed apart in the source

## AP2A1 (from UniProt O95782 1-977)
GFP-IQSec1 (human) [1]
  binding: binds

## AP2B1 (from UniProt P63010 1-937)
GFP-IQSec1 (human) [1]
  binding: binds

## AP2M1 (from UniProt Q96CW1 1-435)
GFP-IQSec1 (human) [1]
  binding: binds

## PDLIM1 (from UniProt O00151 1-329)
GFP-IQSec1 (human) [1]
  binding: binds

## PDLIM7 (from UniProt Q9NR12 1-457)
GFP-IQSec1 (human) [1]
  binding: binds

## PTPN13 (from UniProt Q12923 1-2485)
GFP-IQSec1 (human) [1]
  binding: binds

## SCRB1 (from UniProt Q14160 1-1655)
GFP-IQSec1 (human) [1]
  binding: binds

## ZO-2 (from UniProt Q9UDY2 1-1190)
GFP-IQSec1 (human) [1]
  binding: binds

## clathrin heavy chain (CLTC) (from UniProt Q00610 1-1675)
GFP-IQSec1 (human) [1]
  binding: binds

## oxysterol binding protein related protein 3 (ORP3) (from UniProt Q9H4L5 1-887)
GFP-IQSec1 (human) [1]
  binding: binds

B1: MAGI3 (protein, UniProt Q5TCQ9 1-1481)
chain: MSKTLKKKKHWLSKVQECAVSWAGPPGDFGAEIRGGAERGEFPYLGRLREEPGGGTCCVVSGKAPSPGDVLLEVNGTPVSGLTNRDTLAVIRHFREPIRLKTVKPGKVINKDLRHYLSLQFQKGSIDHKLQQVIRDNLYLRTIPCTTRAPRDGEVPGVDYNFISVEQFKALEESGALLESGTYDGNFYGTPKPPAEPSPFQPDPVDQVLFDNEFDAESQRKRTTSVSKMERMDSSLPEEEEDEDKEAINGSGNAENRERHSESSDWMKTVPSYNQTNSSMDFRNYMMRDETLEPLPKNWEMAYTDTGMIYFIDHNTKTTTWLDPRLCKKAKAPEDCEDGELPYGWEKIEDPQYGTYYVDHLNQKTQFENPVEEAKRKKQLGQVEIGSSKPDMEKSHFTRDPSQLKGVLVRASLKKSTMGFGFTIIGGDRPDEFLQVKNVLKDGPAAQDGKIAPGDVIVDINGNCVLGHTHADVVQMFQLVPVNQYVNLTLCRGYPLPDDSEDPVVDIVAATPVINGQSLTKGETCMNPQDFKPGAMVLEQNGKSGHTLTGDGLNGPSDASEQRVSMASSGSSQPELVTIPLIKGPKGFGFAIADSPTGQKVKMILDSQWCQGLQKGDIIKEIYHQNVQNLTHLQVVEVLKQFPVGADVPLLILRGGPPSPTKTAKMKTDKKENAGSLEAINEPIPQPMPFPPSIIRSGSPKLDPSEVYLKSKTLYEDKPPNTKDLDVFLRKQESGFGFRVLGGDGPDQSIYIGAIIPLGAAEKDGRLRAADELMCIDGIPVKGKSHKQVLDLMTTAARNGHVLLTVRRKIFYGEKQPEDDSSQAFISTQNGSPRLNRAEVPARPAPQEPYDVVLQRKENEGFGFVILTSKNKPPPGVIPHKIGRVIEGSPADRCGKLKVGDHISAVNGQSIVELSHDNIVQLIKDAGVTVTLTVIAEEEHHGPPSGTNSARQSPALQHRPMGQSQANHIPGDRSALEGEIGKDVSTSYRHSWSDHKHLAQPDTAVISVVGSRHNQNLGCYPVELERGPRGFGFSLRGGKEYNMGLFILRLAEDGPAIKDGRIHVGDQIVEINGEPTQGITHTRAIELIQAGGNKVLLLLRPGTGLIPDHGDWDINNPSSSNVIYDEQSPLPPSSHFASIFEESHVPVIEESLRVQICEKAEELKDIVPEKKSTLNENQPEIKHQSLLQKNVSKRDPPSSHGHSNKKNLLKVENGVTRRGRSVSPKKPASQHSEEHLDKIPSPLKNNPKRRPRDQSLSPSKGENKSCQVSTRAGSGQDQCRKSRGRSASPKKQQKIEGSKAPSNAEAKLLEGKSRRIAGYTGSNAEQIPDGKEKSDVIRKDAKQNQLEKSRTRSPEKKIKRMVEKSLPSKMTNKTTSKEVSENEKGKKVTTGETSSSNDKIGENVQLSEKRLKQEPEEKVVSNKTEDHKGKELEAADKNKETGRFKPESSSPVKKTLITPGPWKVPSGNKVTGTIGMAEKRQ
GFP-IQSec1 (human) [2]
  binding: binds

B2: GIPC1 (protein, UniProt O14908 1-333)
chain: MPLGLGRRKKAPPLVENEEAEPGRGGLGVGEPGPLGGGGSGGPQMGLPPPPPALRPRLVFHTQLAHGSPTGRIEGFTNVKELYGKIAEAFRLPTAEVMFCTLNTHKVDMDKLLGGQIGLEDFIFAHVKGQRKEVEVFKSEDALGLTITDNGAGYAFIKRIKEGSVIDHIHLISVGDMIEAINGQSLLGCRHYEVARLLKELPRGRTFTLKLTEPRKAFDMISQRSAGGRPGSGPQLGTGRGTLRLRSRGPATVEDLPSAFEEKAIEKVDDLLESYMGIRDTELAATMVELGKDKRNPDELAEALDERLGDFAFPDEFVFDVWGAIGDAKVGRY
GFP-IQSec1 (human) [2]
  binding: binds
